# From patent US7485456
# Amino acid sequences for entries named in this document (tags omitted). A change or cut given only in a name is not applied to a line headed by its entry. Residues count along the entry.
# UniProt P36941, residues 249-435: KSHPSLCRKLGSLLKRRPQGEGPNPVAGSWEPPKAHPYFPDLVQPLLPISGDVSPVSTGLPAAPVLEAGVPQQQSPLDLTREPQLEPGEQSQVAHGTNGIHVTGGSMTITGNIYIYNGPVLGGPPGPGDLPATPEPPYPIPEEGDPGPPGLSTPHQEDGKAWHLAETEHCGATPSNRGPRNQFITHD
# UniProt Q99558: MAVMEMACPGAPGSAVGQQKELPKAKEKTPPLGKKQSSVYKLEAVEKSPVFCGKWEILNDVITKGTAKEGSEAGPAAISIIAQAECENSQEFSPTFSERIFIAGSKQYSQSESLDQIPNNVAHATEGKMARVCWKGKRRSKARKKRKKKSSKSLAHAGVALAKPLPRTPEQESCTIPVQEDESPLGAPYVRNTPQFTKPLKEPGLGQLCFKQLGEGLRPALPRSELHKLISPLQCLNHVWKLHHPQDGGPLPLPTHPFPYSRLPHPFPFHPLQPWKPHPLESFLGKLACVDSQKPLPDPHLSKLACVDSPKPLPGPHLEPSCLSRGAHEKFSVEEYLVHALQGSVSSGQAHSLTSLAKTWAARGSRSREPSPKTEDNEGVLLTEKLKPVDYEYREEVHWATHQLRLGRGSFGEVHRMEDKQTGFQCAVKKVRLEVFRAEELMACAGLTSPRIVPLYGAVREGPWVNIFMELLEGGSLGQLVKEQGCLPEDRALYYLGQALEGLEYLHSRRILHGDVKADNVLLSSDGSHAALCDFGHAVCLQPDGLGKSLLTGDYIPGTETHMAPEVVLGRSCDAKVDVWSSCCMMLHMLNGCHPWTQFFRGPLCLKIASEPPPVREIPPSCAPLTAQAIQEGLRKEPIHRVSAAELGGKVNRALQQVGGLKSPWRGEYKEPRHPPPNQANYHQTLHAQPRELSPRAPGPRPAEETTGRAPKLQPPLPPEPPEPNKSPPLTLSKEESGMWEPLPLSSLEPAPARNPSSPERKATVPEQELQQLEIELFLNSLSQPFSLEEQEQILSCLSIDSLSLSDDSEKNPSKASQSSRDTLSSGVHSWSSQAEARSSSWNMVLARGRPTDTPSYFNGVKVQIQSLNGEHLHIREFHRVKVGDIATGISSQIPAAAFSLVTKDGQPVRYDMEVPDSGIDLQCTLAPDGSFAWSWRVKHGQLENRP
# Results are given in words; binding and its absence hold for the method and conditions named. For part of these data: Binding seen in cells or lysates may run through a third protein. Some entries that bind do so weakly or less than the wild type. For part of these data: Sequences can lack the tags named with a protein.
# Experiments:
# [1] = biological target: human TRAF2 in pGBT9 vector in conjunction with GAL4 DNA binding domain (two-hybrid bait) (human); test: yeast two-hybrid with TRAF2 bait, growth on 50 mM 3AT (HIS3 reporter)
# [2] = biological target: human TRAF2 in pGBT9 vector in conjunction with GAL4 DNA binding domain (two-hybrid bait) (human); test: yeast two-hybrid screen with TRAF2 bait, positive clones
# [3] = biological target: T1, FLAG/B6/TRAF2 (TRAF2 tagged with FLAG, expressed in HeLa-Bujard cells) (human) (UniProt Q12933); test: co-immunoprecipitation from co-transfected HeLa-Bujard cells (anti-FLAG or anti-HA), SDS-PAGE, autoradiography
# T1 sequence: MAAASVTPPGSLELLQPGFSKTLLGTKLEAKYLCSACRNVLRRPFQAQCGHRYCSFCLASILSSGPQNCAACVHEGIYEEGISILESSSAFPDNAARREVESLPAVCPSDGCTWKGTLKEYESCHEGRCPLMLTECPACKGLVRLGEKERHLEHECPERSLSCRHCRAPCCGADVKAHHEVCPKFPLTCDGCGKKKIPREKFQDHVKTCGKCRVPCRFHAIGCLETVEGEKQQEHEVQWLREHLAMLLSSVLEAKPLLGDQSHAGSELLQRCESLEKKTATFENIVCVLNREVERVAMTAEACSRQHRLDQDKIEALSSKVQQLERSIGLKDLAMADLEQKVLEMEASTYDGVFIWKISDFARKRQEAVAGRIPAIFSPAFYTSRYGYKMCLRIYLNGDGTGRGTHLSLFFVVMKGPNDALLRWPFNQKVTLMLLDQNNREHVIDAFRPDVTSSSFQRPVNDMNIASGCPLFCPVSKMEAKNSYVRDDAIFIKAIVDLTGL
# [4] = biological target: T2, C-terminal region of TRAF2 (C-TRAF domain) (human) (UniProt Q12933); test: yeast two-hybrid (results not shown)
# T2 sequence: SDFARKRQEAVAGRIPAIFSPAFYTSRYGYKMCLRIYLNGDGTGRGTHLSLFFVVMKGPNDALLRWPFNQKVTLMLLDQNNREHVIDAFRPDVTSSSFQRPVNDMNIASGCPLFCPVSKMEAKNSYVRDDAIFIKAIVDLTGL
# [5] = biological target: T3, region of TRAF2 upstream of the C-TRAF domain (N-TRAF domain) (human) (UniProt Q12933); test: yeast two-hybrid (results not shown)
# T3 sequence: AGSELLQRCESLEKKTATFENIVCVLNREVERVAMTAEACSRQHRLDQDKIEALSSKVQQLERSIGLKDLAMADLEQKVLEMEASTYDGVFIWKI
# [6] = biological target: human TRAF2 in pGBT9 vector in conjunction with GAL4 DNA binding domain (two-hybrid bait) (human); test: yeast two-hybrid specificity test
# [7] = biological target: human TRAF2 in pGBT9 vector in conjunction with GAL4 DNA binding domain (two-hybrid bait) (human); test: yeast two-hybrid specificity test, TRAF2 bait
substance,measurement,setting,value
"Lymphotoxin beta receptor cDNA clones picked from the human B-cell library (two-hybrid prey, GAL4 activation domain fusion) (from UniProt P36941 249-435)",binding,[1],binds
same,binding,[2],binds
"ORF of clone 10 in fusion with the Hemeaglutinine (HA) epitope, expressed in HeLa-Bujard cells (from UniProt Q99558 624-947) (enzyme)",binding,[3],binds
full-length NIK (NF-kB inducing kinase) (from UniProt Q99558 1-947) (enzyme),binding,[4],binds
same,binding,[5],binds
"protein encoded by new clone number 10, partial NIK (NIK 624-947) (two-hybrid prey, GAL4 activation domain fusion) (from UniProt Q99558 624-947) (enzyme)",binding,[6],binds
same,binding,[1],binds
same,binding,[4],binds
same,binding,[7],binds
